In publication doi:10.1101/2022.06.22.497210 one finds binding data, which are given here for 7 substances.

The chains behind the UniProt entries cited, without tags or fusion partners. Where a name states a change or a piece, a line headed by the entry shows the natural chain unless it says otherwise. Residues count along the entry.
UniProt O55242: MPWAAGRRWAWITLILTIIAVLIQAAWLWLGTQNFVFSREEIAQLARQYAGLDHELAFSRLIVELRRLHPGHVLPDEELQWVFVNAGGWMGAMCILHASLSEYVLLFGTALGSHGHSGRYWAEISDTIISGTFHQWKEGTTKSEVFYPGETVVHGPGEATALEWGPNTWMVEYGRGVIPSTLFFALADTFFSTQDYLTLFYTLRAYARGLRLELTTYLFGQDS
UniProt P07996, residues 19-1170: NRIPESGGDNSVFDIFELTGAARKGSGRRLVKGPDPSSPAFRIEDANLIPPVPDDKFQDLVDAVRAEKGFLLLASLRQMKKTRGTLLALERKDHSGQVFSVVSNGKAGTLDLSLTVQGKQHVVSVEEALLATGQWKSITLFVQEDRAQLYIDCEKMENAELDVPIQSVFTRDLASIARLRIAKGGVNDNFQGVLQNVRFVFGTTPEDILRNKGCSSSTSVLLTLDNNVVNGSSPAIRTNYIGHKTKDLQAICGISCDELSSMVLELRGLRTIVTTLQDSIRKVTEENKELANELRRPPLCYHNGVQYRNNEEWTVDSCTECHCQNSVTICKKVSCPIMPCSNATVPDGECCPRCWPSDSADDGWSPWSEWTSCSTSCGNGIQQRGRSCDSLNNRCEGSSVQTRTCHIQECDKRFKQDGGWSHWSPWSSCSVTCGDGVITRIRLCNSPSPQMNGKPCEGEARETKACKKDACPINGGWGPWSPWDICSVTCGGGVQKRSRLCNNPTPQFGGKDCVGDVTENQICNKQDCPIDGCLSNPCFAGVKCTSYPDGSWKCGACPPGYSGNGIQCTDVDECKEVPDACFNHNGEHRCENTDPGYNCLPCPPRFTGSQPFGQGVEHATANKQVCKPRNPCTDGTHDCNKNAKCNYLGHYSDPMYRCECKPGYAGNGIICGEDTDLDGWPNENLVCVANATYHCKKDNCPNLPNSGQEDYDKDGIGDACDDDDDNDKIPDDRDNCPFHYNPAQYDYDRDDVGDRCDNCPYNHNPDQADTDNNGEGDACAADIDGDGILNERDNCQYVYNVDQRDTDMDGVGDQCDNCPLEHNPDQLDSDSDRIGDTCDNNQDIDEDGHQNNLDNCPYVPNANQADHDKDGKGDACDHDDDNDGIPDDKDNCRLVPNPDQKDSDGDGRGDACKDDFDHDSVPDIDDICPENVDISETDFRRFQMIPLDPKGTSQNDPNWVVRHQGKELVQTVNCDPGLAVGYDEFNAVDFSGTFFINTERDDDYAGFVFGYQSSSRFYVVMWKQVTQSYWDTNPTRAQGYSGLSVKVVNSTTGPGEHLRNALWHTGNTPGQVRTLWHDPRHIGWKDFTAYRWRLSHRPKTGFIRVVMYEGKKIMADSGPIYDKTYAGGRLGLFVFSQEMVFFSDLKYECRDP
UniProt P27824, residues 21-592: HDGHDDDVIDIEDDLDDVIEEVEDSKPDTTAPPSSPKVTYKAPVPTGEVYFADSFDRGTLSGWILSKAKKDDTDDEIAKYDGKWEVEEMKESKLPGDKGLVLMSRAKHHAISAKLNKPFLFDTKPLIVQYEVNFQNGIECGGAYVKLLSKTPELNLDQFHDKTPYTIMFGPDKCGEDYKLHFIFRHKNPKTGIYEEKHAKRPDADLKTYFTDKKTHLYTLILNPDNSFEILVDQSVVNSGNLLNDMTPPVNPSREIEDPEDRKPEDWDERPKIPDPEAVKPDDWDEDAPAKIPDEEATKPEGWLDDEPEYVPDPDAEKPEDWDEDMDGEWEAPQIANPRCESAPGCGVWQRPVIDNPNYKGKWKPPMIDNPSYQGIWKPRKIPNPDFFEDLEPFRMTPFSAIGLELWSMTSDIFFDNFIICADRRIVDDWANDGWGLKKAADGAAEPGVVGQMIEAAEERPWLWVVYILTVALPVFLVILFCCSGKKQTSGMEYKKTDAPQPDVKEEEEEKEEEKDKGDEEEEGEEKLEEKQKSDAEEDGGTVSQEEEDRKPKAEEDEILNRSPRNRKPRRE
UniProt Q99715, residues 24-3063: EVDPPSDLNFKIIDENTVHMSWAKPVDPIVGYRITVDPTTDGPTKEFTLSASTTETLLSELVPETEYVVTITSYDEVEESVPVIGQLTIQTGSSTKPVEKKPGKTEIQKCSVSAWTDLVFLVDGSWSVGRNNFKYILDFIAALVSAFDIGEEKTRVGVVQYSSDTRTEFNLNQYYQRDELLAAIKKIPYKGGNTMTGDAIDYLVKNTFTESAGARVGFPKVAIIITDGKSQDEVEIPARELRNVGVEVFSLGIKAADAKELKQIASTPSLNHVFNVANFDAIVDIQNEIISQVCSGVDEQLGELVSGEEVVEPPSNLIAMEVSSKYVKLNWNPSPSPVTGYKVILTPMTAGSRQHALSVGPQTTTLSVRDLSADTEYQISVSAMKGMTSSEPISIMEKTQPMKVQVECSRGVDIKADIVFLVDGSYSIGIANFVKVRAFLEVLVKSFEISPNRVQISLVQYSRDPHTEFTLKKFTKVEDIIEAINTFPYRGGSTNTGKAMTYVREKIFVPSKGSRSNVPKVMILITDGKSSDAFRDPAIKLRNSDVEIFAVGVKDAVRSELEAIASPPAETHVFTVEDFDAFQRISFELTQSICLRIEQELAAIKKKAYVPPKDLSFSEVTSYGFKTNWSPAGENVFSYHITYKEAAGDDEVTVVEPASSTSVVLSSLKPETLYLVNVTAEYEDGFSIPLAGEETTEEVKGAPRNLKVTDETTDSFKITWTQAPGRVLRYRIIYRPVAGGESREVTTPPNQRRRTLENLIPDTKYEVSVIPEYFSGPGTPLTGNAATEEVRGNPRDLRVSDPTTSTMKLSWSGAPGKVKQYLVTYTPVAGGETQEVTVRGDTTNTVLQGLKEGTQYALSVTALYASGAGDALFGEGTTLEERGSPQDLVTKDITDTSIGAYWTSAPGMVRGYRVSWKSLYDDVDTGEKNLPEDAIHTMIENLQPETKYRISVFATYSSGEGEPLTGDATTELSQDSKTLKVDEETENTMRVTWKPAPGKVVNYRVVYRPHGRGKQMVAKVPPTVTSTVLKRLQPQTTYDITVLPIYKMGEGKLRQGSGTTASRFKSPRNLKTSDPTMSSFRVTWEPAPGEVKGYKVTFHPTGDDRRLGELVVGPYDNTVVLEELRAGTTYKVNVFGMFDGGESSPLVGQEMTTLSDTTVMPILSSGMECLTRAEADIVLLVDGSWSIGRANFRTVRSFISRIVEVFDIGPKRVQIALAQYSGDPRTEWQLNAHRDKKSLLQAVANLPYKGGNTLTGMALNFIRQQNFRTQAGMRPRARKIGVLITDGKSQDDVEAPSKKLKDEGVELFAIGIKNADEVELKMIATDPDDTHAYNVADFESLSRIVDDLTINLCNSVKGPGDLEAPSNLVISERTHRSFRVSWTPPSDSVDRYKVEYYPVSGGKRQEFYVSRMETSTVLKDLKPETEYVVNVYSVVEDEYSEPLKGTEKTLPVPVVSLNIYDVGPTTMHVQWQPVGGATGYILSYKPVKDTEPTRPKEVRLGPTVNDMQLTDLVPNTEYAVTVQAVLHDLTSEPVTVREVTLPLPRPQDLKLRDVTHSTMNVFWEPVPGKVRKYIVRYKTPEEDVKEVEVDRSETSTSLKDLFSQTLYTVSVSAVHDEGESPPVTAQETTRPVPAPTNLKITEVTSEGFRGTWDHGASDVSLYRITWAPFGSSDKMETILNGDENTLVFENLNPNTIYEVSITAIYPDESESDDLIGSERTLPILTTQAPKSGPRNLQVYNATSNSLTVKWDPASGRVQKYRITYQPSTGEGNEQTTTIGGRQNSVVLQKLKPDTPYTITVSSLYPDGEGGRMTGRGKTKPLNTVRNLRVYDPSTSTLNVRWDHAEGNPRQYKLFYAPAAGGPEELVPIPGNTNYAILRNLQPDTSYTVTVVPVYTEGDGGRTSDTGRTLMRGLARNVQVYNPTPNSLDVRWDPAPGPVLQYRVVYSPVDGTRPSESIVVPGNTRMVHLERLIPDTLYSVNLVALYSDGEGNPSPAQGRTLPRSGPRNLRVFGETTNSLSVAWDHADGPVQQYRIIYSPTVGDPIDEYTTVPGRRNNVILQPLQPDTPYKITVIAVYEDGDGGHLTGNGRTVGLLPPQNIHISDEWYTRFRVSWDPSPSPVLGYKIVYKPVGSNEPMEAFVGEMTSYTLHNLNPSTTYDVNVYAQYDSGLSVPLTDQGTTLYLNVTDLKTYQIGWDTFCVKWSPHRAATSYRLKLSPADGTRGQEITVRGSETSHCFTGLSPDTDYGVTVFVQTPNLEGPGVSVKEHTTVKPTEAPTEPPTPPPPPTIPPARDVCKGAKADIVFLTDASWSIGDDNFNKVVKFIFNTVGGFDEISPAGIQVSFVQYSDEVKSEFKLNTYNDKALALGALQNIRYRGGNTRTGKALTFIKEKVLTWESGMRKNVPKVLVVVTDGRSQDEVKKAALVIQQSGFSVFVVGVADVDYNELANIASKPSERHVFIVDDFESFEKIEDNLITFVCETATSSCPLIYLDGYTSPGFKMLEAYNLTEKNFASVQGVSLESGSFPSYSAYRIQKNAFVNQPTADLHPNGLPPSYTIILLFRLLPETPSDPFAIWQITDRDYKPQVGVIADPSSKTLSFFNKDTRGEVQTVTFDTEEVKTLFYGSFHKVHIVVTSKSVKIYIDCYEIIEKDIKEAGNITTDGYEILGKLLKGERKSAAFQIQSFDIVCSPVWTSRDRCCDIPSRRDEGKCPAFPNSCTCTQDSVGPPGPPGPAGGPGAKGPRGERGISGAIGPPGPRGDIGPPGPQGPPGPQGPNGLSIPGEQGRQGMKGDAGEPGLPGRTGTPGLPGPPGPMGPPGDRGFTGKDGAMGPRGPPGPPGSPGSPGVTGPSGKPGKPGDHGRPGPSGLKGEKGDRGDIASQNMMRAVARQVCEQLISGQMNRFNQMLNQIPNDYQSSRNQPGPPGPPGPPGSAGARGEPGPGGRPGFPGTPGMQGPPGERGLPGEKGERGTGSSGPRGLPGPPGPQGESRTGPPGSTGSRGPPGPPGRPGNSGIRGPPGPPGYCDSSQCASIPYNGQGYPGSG
UniProt P11021, residues 19-654: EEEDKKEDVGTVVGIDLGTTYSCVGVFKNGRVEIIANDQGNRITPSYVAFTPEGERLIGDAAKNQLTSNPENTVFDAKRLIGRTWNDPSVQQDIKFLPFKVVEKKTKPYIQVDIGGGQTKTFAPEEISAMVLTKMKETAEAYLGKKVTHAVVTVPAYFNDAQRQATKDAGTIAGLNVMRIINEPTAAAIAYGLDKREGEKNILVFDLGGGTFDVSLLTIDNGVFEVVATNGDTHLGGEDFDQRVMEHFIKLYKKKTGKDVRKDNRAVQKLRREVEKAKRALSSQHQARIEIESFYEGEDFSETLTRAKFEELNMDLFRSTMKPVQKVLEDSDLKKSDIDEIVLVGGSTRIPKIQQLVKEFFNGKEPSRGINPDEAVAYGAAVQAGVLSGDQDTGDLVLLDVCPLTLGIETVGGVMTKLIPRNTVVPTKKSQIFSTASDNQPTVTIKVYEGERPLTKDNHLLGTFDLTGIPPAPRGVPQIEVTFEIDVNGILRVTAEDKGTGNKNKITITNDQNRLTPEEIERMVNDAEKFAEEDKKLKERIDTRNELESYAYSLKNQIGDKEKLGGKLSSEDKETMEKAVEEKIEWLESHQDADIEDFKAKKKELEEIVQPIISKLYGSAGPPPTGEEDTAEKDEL
UniProt Q99720: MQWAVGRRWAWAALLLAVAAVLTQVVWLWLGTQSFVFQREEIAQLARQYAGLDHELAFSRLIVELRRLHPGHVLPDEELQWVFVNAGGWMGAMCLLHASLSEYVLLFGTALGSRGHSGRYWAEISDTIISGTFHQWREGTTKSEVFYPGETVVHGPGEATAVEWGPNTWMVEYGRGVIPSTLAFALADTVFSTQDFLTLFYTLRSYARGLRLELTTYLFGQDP

No constants are given. Whether binding was seen depends on the method and setting. In cells and extracts the contact can be indirect. These calls come from enrichment with a bait or labelling near it, and not all partners need be listed.

One test addresses S1R-Apex (mouse Sigma 1 Receptor with V5-Apex2 fused to the C terminus) (mouse) (UniProt O55242). The test can be described thus: proximity labelling.
On to “Low density lipoprotein receptor (LDLR) (from UniProt P01130 22-860)”, for which the binding result is “binds”. Turning to “Proprotein Convertase Subtilisin/Kexin Type 9 (PCSK9) (from UniProt Q8NBP7) (enzyme)”, the binding entry is “binds”. With “Thrombospondin1 (THBS1) (from UniProt P07996 19-1170)”, the binding result is “binds”.

The target is the same in the next test. The test can be described thus: proximity labelling. This is another data set of the same source.
Regarding Calnexin (from UniProt P27824 21-592), the binding entry is “binds”. Turning to “Collagen12 (COL12A1) (from UniProt Q99715 24-3063)”, the binding result was “binds”. Turning to “ER chaperone BiP (GRP78) (from UniProt P11021 19-654)”, the binding result is on record as “binds”. With “Low density lipoprotein receptor (LDLR) (from UniProt P01130 22-860)”, the binding result is listed as “binds”. On the same count and under the same terms, for “Proprotein Convertase Subtilisin/Kexin Type 9 (PCSK9) (from UniProt Q8NBP7) (enzyme)” the value was “binds”; for “Thrombospondin1 (THBS1) (from UniProt P07996 19-1170)”, “binds”; for “endogenous Sigma 1 Receptor (S1R) (from UniProt Q99720 1-223)”, “binds”.

Another test has the same target. In words: proximity labelling. This is another data set of the same source.
For Calnexin (from UniProt P27824 21-592), the binding entry is on record as “binds”.
